Article PMC12448072
Results are given in words; binding and its absence hold for the method and conditions named. In cells and extracts the contact can be indirect. Here binding means that the protein was enriched with, or labelled near, the bait; the list need not be complete. For part of these data: Tags and fused reporters may be left off the sequences shown. Values belong to the molecule of their own block, whether it stands above or below them.

Chains of the proteins cited; added tags and fusions are not shown. Lines headed by an entry give the natural chain unless they say otherwise; changes in a name come on top.
UniProt F4JX49: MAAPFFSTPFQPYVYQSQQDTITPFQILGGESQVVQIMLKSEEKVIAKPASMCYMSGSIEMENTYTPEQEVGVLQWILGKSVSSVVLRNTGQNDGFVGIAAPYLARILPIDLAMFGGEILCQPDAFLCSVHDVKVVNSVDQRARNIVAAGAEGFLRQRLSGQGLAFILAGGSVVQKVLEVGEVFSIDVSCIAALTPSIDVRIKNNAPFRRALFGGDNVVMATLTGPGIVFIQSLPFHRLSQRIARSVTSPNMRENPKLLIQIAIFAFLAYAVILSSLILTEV

What was measured:
[1] = target: T1, GFP-PILS3 (PIN-LIKES 3, GFP-tagged) (A. thaliana) (UniProt Q9C9K5); assay: affinity purification with mass spectrometry; anti-GFP beads on extracts of A. thaliana lines expressing GFP-PILS2, GFP-PILS3 or PILS6-GFP as baits; extraction buffer 25 mM Tris pH 7.5, 10 mM MgCl2, 15 mM EGTA, 75 mM NaCl, 1 mM DTT, 0.1% Tween 20; screen performed twice
T1 sequence: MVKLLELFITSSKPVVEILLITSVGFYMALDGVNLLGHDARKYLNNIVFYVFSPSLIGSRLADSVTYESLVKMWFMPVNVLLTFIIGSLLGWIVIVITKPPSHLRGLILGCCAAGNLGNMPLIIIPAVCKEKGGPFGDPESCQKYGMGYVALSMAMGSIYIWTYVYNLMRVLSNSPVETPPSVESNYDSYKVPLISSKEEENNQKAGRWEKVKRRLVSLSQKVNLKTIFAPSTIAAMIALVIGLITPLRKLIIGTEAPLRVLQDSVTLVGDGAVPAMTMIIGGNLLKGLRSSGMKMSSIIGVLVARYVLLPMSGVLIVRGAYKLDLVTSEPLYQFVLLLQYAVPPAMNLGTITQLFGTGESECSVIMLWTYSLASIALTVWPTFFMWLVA

[2] = target: T2, GFP-PILS2 (PIN-LIKES 2, GFP-tagged) (A. thaliana) (UniProt Q9C999); assay: as above
T2 sequence: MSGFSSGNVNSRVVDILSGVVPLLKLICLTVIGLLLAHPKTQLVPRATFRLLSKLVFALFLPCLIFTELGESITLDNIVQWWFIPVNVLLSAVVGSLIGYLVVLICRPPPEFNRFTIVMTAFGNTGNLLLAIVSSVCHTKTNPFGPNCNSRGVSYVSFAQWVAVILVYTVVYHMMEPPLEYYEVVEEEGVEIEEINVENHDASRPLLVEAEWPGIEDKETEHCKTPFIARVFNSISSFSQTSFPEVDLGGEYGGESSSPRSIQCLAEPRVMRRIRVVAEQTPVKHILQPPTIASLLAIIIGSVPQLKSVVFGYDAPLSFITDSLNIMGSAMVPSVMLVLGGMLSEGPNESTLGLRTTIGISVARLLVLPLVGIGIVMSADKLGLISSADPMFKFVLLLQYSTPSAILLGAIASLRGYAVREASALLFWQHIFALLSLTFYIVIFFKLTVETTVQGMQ

[3] = target: T3, PILS6-GFP (PIN-LIKES 6, GFP-tagged) (A. thaliana) (UniProt Q9LZN2); assay: as above
T3 sequence: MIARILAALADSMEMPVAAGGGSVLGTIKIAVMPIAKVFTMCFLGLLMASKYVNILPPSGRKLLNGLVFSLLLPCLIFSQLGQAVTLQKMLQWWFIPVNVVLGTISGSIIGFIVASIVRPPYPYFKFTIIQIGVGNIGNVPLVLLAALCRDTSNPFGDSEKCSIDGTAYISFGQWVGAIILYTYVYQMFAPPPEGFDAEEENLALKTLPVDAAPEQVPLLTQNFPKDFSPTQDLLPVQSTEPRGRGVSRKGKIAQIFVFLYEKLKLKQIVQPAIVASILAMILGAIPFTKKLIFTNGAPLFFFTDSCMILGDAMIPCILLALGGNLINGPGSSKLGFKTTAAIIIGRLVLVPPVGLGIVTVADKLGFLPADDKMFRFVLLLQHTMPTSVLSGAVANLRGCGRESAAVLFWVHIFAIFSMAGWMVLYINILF

[4] = target: HRD1 (endogenous HRD1A/B, as recognised by the HRD1 antibody) (A. thaliana (endogenous in A. thaliana)); assay: affinity purification with mass spectrometry; co-IP with anti-HRD1 antibodies on wild-type Arabidopsis lysates, label-free quantitative mass spectrometry; mock IPs (beads without antibody) as background

binding [1]: binds
binding [2]: binds
binding [3]: binds
B1: HMG-CoA Reductase Degradation 1A (HRD1A) (protein, UniProt Q9LW77 1-492)
chain: MIRLRTYAGLSFMATLAVIYHAFSSRGQFYPATVYLSTSKISLVLLLNMCLVLMLSLWHLVKFVFLGSLREAEVERLNEQAWRELMEILFAITIFRQDFSSGFLPLVVTLLLIKALHWLAQKRVEYIETTPSVSKLSHFRIVSFMGFLLLVDSLFMYSSIRHLIQSRQASVSLFFSFEYMILATTTVAIFVKYVFYVTDMLMDGQWEKKPVYTFYLELIRDLLHLSMYICFFFVIFMNYGVPLHLLRELYETFRNFQIRVSDYLRYRKITSNMNDRFPDATPEELTASDATCIICREEMTNAKKLICGHLFHVHCLRSWLERQQTCPTCRALVVPPENATSAAPGQRELHQGSQQGTSSSGNQGSEISSSAGVSNNSLSRHHARLQAAASAASVYGKSMVYPSANTVAWSSGVPGTEQVSTEPDQTLPQHNLPVENSHAYANMSETKLEEMRKSLETHLEILRNRLHFLETRKPESAGEPENKGKSVADAAE

binding [4]: binds
B2: DER2.1 (protein, UniProt Q8VZ96 1-244)
chain: MAQAVEEWYKQMPIITRSYLTAAVVTTVGCSLEIISPYNLYLNPTLVVKQYQFWRLVTNFLYFRKMDLDFLFHMFFLARYCKLLEENSFRGKTADFLYMLLFGATVLTGIVLIGGMIPYLSVSFSKIIFLSNSLTFMMVYVWSKQNPYIHMSFLGLFTFTAAYLPWVLLGFSILVGASAWGDFLGMIAGHAYYFLAFVYPRMTDRRPLKTPSFLKALFADEPVVIARPEDVRFAHAPFDEIHQD

The next lines start with the molecule.

Molecule: PAWH2 (from UniProt F4JX49)
binding [1]: binds
binding [2]: binds
binding [3]: binds

Molecule: Protein Associated with HRD1-1 (PAWH1) (A. thaliana (endogenous in A. thaliana))
binding [1]: binds
binding [2]: binds
binding [3]: binds

B3: native PILS5 (protein, UniProt Q9SHL8 1-396)
chain: MGFWSLLEVASMPVIQVLFMSLVGAFMASDRCKLFPVEARNSMNKVVFVLFAPALMFANLAQTVTLEDIISWWFMPVNMGLTFLIGGLLGWLVVKILKPPPYLEGLIVATCSAGNMGNLPIILVPAICDEDKSPFGNRSVCRTVGLSYASFSMALGGFYIWTYTFRLIKGSAMKVQAIEESEKIAIKSSNSDLEADHKTHLLGAPEDKENKVVKEKTGFWRKGVDFLHEILEELLAPPTLGAIIGFIFGAVRWLRNLIIGDDAPLRIVQSTAKLLGDGTIPCMTIILGGNLIQGLRSSAVKPMVVLGIVCVRYIAMPIIGIGIVLTAANLGFLPADPLFQYVLMLQFTLPPAMNIGTMTQLYNVAQDECSVLMLWTYLVAILALTVWSTIFLHLLV
binding [4]: binds

B4: DER2.2 (protein, UniProt Q9ZS88 1-244)
chain: MAQAVEEWYKQMPIITRSYLTAAVITTVGCSLDIISPYNLYLNPTLVVKQYQYWRLVTNFLYFRKMDLDFMFHMFFLARYCKLLEENSFRGKTADFLYMLLFGASVLTGIVLIGGMIPYLSASFAKIIFLSNSLTFMMVYVWSKQNPYIHMSFLGLFTFTAAYLPWVLLGFSILVGASAWVDLLGMIAGHAYYFLAEVYPRMTNRRPLKTPSFLKALFADEPVVVARPEDVRFAAAPFDEIHQD
binding [4]: binds
